# The inconclusive results got no clear call from the source; some entries with a clear call stand among them for comparison. Potencies of inconclusive entries are doubtful fits and often do not repeat. Calls of active or inactive are those of the source. Calls come from the whole dose curve; as a rule, active = well fitted cell-killing curve with a large enough effect; inconclusive = small, poorly fitted or top-dose-only effect, or effect the other way; inactive = no such curve, though single readings can be large or run the other way.
# What was measured:
# [1] = Quantitative High-Throughput drug screen in 47 multiple myeloma cell lines against the NCATS MIPE library collection: FR4_PLB cell viability assay (AID 1918924; note: nearly all actives have a fitted effect of over 35% in size); conditions: FR4_PLB myeloma cells viability, CellTiter-Glo ATP, 48 h; viability (% of DMSO control): at 45.8 µM (top of the series)
# Method in brief: (§1)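 Relative luminescence from CellTiter-Glo served as the viability signal, referenced to DMSO-treated (100%) and cell-free medium (0%) controls. Treatment lasted 48 hours at 37C with 500 cells per well.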
# [2] = Quantitative High-Throughput drug screen in 47 multiple myeloma cell lines against the NCATS MIPE library collection: ARP1_JJKsccF8 cell viability assay (AID 1918928; note: nearly all actives have a fitted effect of over 40% in size); conditions: ARP1 myeloma cells viability, CellTiter-Glo ATP, 48 h; viability: at 45.8 µM (top of the series)
# Method in brief: (§2)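 CellTiter-Glo luminescence after 48 h exposure gives viability, scaled between DMSO-only (100%) and media-only (0%) controls. Library compounds are pinned onto 500 myeloma cells per well, incubated at 37C with 5% CO2.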
# [3] = Quantitative High-Throughput drug screen in 47 multiple myeloma cell lines against the NCATS MIPE library collection: Karpas620_DSMZ cell viability assay (AID 1918959); conditions: Karpas620 myeloma viability, CellTiter-Glo ATP luminescence, 48 h; viability (% of DMSO): at 45.8 µM (top of the series); note: nearly all actives have a fitted effect of over 30% in size
# Method in brief: as §1
# [4] = Quantitative High-Throughput drug screen in 47 multiple myeloma cell lines against the NCATS MIPE library collection: Karpas417_ECACC cell viability assay (AID 1918961); conditions: Karpas417 myeloma viability, CellTiter-Glo ATP luminescence, 48 h; viability (% of DMSO): at 45.8 µM (top of the series)
# Method in brief: as §1
# [5] = Quantitative High-Throughput drug screen in 47 multiple myeloma cell lines against the NCATS MIPE library collection: Delta47_JCRB cell viability assay (AID 1918925; note: nearly all actives have a fitted effect of over 45% in size); conditions: Delta47 myeloma viability, CellTiter-Glo ATP, 48 h; viability (% of DMSO): at 45.8 µM (top of the series)
# Method in brief: (§3)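 Myeloma cell lines, 500 cells per well, exposed to MIPE 4.0 library compounds for 48 h at 37C, 5% CO2. Viability from ATP by CellTiter-Glo luminescence; normalised to DMSO (100%) and media-only (0%) wells.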
# [6] = Quantitative High-Throughput drug screen in 47 multiple myeloma cell lines against the NCATS MIPE library collection: EJM_DSMZ cell viability assay (AID 1918926; note: nearly all actives have a fitted effect of over 30% in size); conditions: EJM myeloma cell viability, CellTiter-Glo ATP, 48 h; viability, % of control: at 45.8 µM (top of the series)
# Method in brief: as §3
# [7] = Quantitative High-Throughput drug screen in 47 multiple myeloma cell lines against the NCATS MIPE library collection: AMO1_DSMZ cell viability assay (AID 1918927; note: nearly all actives have a fitted effect of over 30% in size); conditions: AMO1 myeloma cells viability, CellTiter-Glo ATP luminescence, 48 h; viability, % of DMSO: at 45.8 µM (top of the series)
# Method in brief: as §3
# [8] = Quantitative High-Throughput drug screen in 47 multiple myeloma cell lines against the NCATS MIPE library collection: ARD_JJKsccE7 cell viability assay (AID 1918929); conditions: ARD myeloma cell line viability, CellTiter-Glo, 48 h; viability: at 45.8 µM (top of the series)
# Method in brief: as §3
# [9] = Quantitative High-Throughput drug screen in 47 multiple myeloma cell lines against the NCATS MIPE library collection: KMM1_JCRB cell viability assay (AID 1918960); conditions: KMM1 myeloma viability, CellTiter-Glo ATP luminescence, 48 h; viability (% of DMSO): at 45.8 µM (top of the series); note: nearly all actives have a fitted effect of over 30% in size
# Method in brief: as §2
# Potency is the fitted concentration of half-maximal effect.
smiles,measurement,setting,value
COc1cc2nccc(Oc3ccc(NC(=O)Nc4cc(C)on4)c(Cl)c3)c2cc1OC,Potency,[1],active: 20.9 µM
same,Potency,[2],"inconclusive: 20.9 µM [cytotoxic, partial curve]"
same,Potency,[3],"inconclusive: 6.62 µM [cytotoxic, single point]"
same,Potency,[4],"inconclusive: 7.43 µM [cytotoxic, partial curve, poor fit]"
OC[C@H]1OC(O)C[C@@H](O)[C@H]1O (some centres undefined),Potency,[5],"inconclusive: 0.0026 µM [rising, full curve, poor fit]"
same,Potency,[6],inactive
same,Potency,[7],"inconclusive: 0.0033 µM [rising, full curve]"
same,Potency,[2],inactive
same,Potency,[8],"inconclusive: 0.0015 µM [rising, full curve, poor fit]"
same,Potency,[9],"inconclusive: 0.0083 µM [cytotoxic, full curve, poor fit]"
same,Potency,[4],inactive
COc1ccc(-c2ccc3c(N4CCOC[C@H]4C)nc(N4CCOC[C@H]4C)nc3n2)cc1CO,Potency,[5],"inconclusive: 0.0166 µM [cytotoxic, full curve]"
same,Potency,[6],"inconclusive: 0.0935 µM [cytotoxic, full curve]"
same,Potency,[7],"inconclusive: 0.0296 µM [cytotoxic, full curve]"
same,Potency,[2],"inconclusive: 0.0093 µM [cytotoxic, full curve]"
same,Potency,[8],"inconclusive: 0.148 µM [cytotoxic, full curve]"
same,Potency,[3],"inconclusive: 0.166 µM [cytotoxic, full curve]"
same,Potency,[9],"inconclusive: 0.0166 µM [cytotoxic, full curve]"
CCN1CCCC1CNC(=O)c1cc(S(=O)(=O)CC)c(N)cc1OC (centres undefined),Potency,[1],inactive
same,Potency,[8],"inconclusive: 11.8 µM [cytotoxic, single point]"
same,Potency,[4],"inconclusive: 13.2 µM [rising, partial curve, poor fit]"
COc1c(Cl)cc2c([nH]c3cnccc32)c1NC(=O)c1cccnc1C,Potency,[1],"inconclusive: 18.7 µM [cytotoxic, partial curve]"
same,Potency,[9],"inconclusive: 0.662 µM [cytotoxic, full curve]"
same,Potency,[4],active: 16.6 µM
CCc1cccc2c3c([nH]c12)C(CC)(CC(=O)O)OCC3 (centres undefined),Potency,[1],"inconclusive: 0.0019 µM [cytotoxic, full curve, poor fit]"
same,Potency,[7],inactive
same,Potency,[8],inactive
same,Potency,[9],inactive
same,Potency,[4],inactive
CCOc1ccccc1OCCNC(C)Cc1ccc(OC)c(S(N)(=O)=O)c1 (centres undefined),Potency,[1],inactive
same,Potency,[7],"inconclusive: 0.0017 µM [rising, full curve]"
same,Potency,[4],"inconclusive: 0.0083 µM [cytotoxic, full curve, poor fit]"
CCOC(=O)[C@H](CCc1ccccc1)N[C@H]1CCc2ccccc2N(CC(=O)O)C1=O,Potency,[1],"inconclusive: 29.6 µM [cytotoxic, single point]"
same,Potency,[7],active: 7.43 µM
same,Potency,[4],"inconclusive: 10.5 µM [cytotoxic, full curve, poor fit]"
Fc1ccc(CNc2ncnc3ccc(F)cc23)cc1,Potency,[1],"inconclusive: 14.8 µM [cytotoxic, partial curve]"
same,Potency,[2],active: 6.62 µM
same,Potency,[8],active: 4.69 µM
same,Potency,[3],active: 5.9 µM
O=C(c1ccc(C=Cc2n[nH]c3ccccc23)cc1)N1CCNCC1,Potency,[1],"inconclusive: 37.2 µM [cytotoxic, single point]"
same,Potency,[8],active: 1.32 µM
same,Potency,[3],"inconclusive: 0.296 µM [cytotoxic, full curve, poor fit]"
same,Potency,[9],active: 5.26 µM
same,viability (% of DMSO),[4],inconclusive: 10.1% [cytotoxic]
CN(C)C(=O)c1ccc(S(=O)(=O)c2ccc(NC(=O)[C@@](C)(O)C(F)(F)F)c(Cl)c2)cc1,Potency,[1],"inconclusive: 33.2 µM [cytotoxic, single point]"
same,Potency,[2],"inconclusive: 6.62 µM [cytotoxic, partial curve]"
same,Potency,[3],"inconclusive: 9.35 µM [cytotoxic, partial curve]"
same,Potency,[9],"inconclusive: 6.62 µM [cytotoxic, partial curve]"
same,Potency,[4],"inconclusive: 26.4 µM [cytotoxic, partial curve, poor fit]"
NC(N)=NC(=O)c1nc(Cl)c(N)nc1N,Potency,[1],"inconclusive: 3.72 µM [rising, partial curve]"
same,Potency,[2],inactive
same,Potency,[8],"inconclusive: 66.2 µM [cytotoxic, partial curve, poor fit]"
same,Potency,[3],inactive
same,Potency,[9],"inconclusive: 26.4 µM [cytotoxic, single point]"
CCCCCCCc1ccc(CCc2cccc(O)c2C(=O)O)cc1,Potency,[5],"inconclusive: 23.5 µM [cytotoxic, single point]"
same,Potency,[6],inactive
same,Potency,[7],inactive
same,Potency,[2],"inconclusive: 23.5 µM [cytotoxic, single point]"
same,Potency,[8],"inconclusive: 0.0013 µM [rising, full curve, poor fit]"
same,Potency,[9],"inconclusive: 0.0019 µM [rising, full curve, poor fit]"
CC1(C)OC2CC3C4CC(F)C5=CC(=O)C=CC5(C)C4C(O)CC3(C)[C@]2(C(=O)CO)O1 (some centres undefined),Potency,[1],inactive
same,Potency,[4],"inconclusive: 13.2 µM [cytotoxic, partial curve, poor fit]"
NC(=O)N1CCC(CC(=O)N2CCC([C@H]3c4ncc(Br)cc4CCc4cc(Cl)cc(Br)c43)CC2)CC1,Potency,[1],active: 20.9 µM
same,Potency,[3],active: 14.8 µM
same,Potency,[4],active: 10.5 µM
CC(C)c1noc(N2CCC(COc3ccc(-c4ccc(S(C)(=O)=O)cc4)nc3)CC2)n1,Potency,[5],"inconclusive: 0.0037 µM [cytotoxic, full curve, poor fit]"
same,Potency,[6],"inconclusive: 10.5 µM [cytotoxic, partial curve, poor fit]"
same,Potency,[7],inactive
same,Potency,[2],"inconclusive: 10.5 µM [cytotoxic, full curve]"
same,Potency,[8],inactive
same,Potency,[9],"inconclusive: 0.003 µM [rising, full curve, poor fit]"
same,Potency,[4],inactive
CC(C)(C)c1cc(C(C)(C)C)c(NC(=O)c2c[nH]c3ccccc3c2=O)cc1O,Potency,[1],inconclusive: 0.001 µM
same,Potency,[2],inconclusive: 0.001 µM
same,Potency,[4],inactive
COc1cc2c(cc1-c1c(C)noc1C)ncc1[nH]c(=O)n([C@H](C)c3ccccn3)c12,Potency,[1],active: 0.833 µM
same,Potency,[9],active: 5.9 µM
same,Potency,[4],active: 0.148 µM
CS(=O)(=O)Oc1ccc2c(NC(N)=O)c(C(=O)c3ccc(Cl)cc3Cl)oc2c1,Potency,[5],active: 14.8 µM
same,Potency,[6],inactive
same,Potency,[2],"inconclusive: 10.5 µM [cytotoxic, single point]"
same,Potency,[8],active: 8.33 µM
same,Potency,[9],"inconclusive: 2.64 µM [cytotoxic, full curve, poor fit]"
same,Potency,[4],"inconclusive: 10.5 µM [cytotoxic, partial curve, poor fit]"
NC(=O)c1cnccn1,Potency,[5],inactive
same,Potency,[6],inactive
same,Potency,[7],inactive
same,Potency,[2],inactive
same,Potency,[3],inactive
same,Potency,[4],"inconclusive: 0.0019 µM [cytotoxic, full curve, poor fit]"
CN1CC(=O)NC1=NC(=O)Nc1cccc(Cl)c1,Potency,[5],"inconclusive: 0.0187 µM [cytotoxic, full curve, poor fit]"
same,Potency,[6],"inconclusive: 33.2 µM [cytotoxic, single point]"
same,Potency,[8],"inconclusive: 8.33 µM [cytotoxic, single point]"
same,Potency,[3],active: 5.26 µM
same,Potency,[4],"inconclusive: 37.2 µM [rising, partial curve, poor fit]"
C[C@@]12C[C@@]3(O)O[C@@H](O1)[C@]1(COC(=O)c4ccccc4)[C@@H]3C[C@@]12O[C@@H]1O[C@H](CO)[C@@H](O)[C@H](O)[C@@H]1O,Potency,[5],"inconclusive: 7.43 µM [rising, full curve, poor fit]"
same,Potency,[6],inactive
same,Potency,[2],"inconclusive: 11.8 µM [cytotoxic, single point]"
same,Potency,[4],"inconclusive: 0.0023 µM [cytotoxic, full curve, poor fit]"
CC(=O)O[C@H]1C(=O)[C@@]2(C)C([C@H](OC(=O)c3ccccc3)[C@]3(O)C[C@H](OC(=O)[C@H](O)[C@@H](NC(=O)c4ccccc4)c4ccccc4)C(C)=C1C3(C)C)[C@]1(OC(C)=O)CO[C@@H]1C[C@@H]2O (some centres undefined),Potency,[5],"inconclusive: 0.0187 µM [cytotoxic, full curve]"
same,Potency,[6],inactive
same,Potency,[7],"inconclusive: 10.5 µM [rising, full curve, poor fit]"
same,Potency,[8],"inconclusive: 9.35 µM [rising, full curve, poor fit]"
same,Potency,[3],"inconclusive: 9.35 µM [rising, full curve, poor fit]"
same,Potency,[9],"inconclusive: 9.35 µM [rising, full curve, poor fit]"
same,Potency,[4],"inconclusive: 16.6 µM [rising, partial curve, poor fit]"
CC1(C)CC(=O)c2c(C(F)(F)F)nn(-c3ccc(C(N)=O)c(NC4CCC(O)CC4)c3)c2C1 (centres undefined),Potency,[5],"inconclusive: 0.166 µM [cytotoxic, full curve]"
same,Potency,[6],"inconclusive: 0.0743 µM [cytotoxic, full curve]"
same,Potency,[7],"inconclusive: 0.0332 µM [cytotoxic, full curve, poor fit]"
same,Potency,[3],"inconclusive: 0.0042 µM [cytotoxic, full curve, poor fit]"
same,Potency,[9],inactive
same,Potency,[4],"inconclusive: 1.66 µM [rising, partial curve, poor fit]"
CNC(=O)c1c(-c2ccc(F)cc2)oc2cc(N(CCO)S(C)(=O)=O)c(C3CC3)cc12,Potency,[5],"inconclusive: 18.7 µM [cytotoxic, partial curve, poor fit]"
same,Potency,[6],"inconclusive: 20.9 µM [cytotoxic, partial curve]"
same,Potency,[2],inconclusive: 0.001 µM
same,Potency,[8],"inconclusive: 33.2 µM [cytotoxic, single point]"
same,Potency,[3],"inconclusive: 23.5 µM [cytotoxic, partial curve]"
same,Potency,[9],"inconclusive: 20.9 µM [cytotoxic, partial curve, poor fit]"
same,Potency,[4],"inconclusive: 5.26 µM [cytotoxic, partial curve, poor fit]"

# Rewritten bar-delimited: part of the list above
smiles | measurement | setting | value
COc1ccc(-c2ccc3c(N4CCOC[C@H]4C)nc(N4CCOC[C@H]4C)nc3n2)cc1CO | Potency | [9] | inconclusive: 0.0166 µM [cytotoxic, full curve]
CCN1CCCC1CNC(=O)c1cc(S(=O)(=O)CC)c(N)cc1OC (centres undefined) | Potency | [1] | inactive
same | Potency | [8] | inconclusive: 11.8 µM [cytotoxic, single point]
same | Potency | [4] | inconclusive: 13.2 µM [rising, partial curve, poor fit]
COc1c(Cl)cc2c([nH]c3cnccc32)c1NC(=O)c1cccnc1C | Potency | [1] | inconclusive: 18.7 µM [cytotoxic, partial curve]

# 2 entries from above in another layout.
smiles	measurement	setting	value
CC(=O)O[C@H]1C(=O)[C@@]2(C)C([C@H](OC(=O)c3ccccc3)[C@]3(O)C[C@H](OC(=O)[C@H](O)[C@@H](NC(=O)c4ccccc4)c4ccccc4)C(C)=C1C3(C)C)[C@]1(OC(C)=O)CO[C@@H]1C[C@@H]2O (some centres undefined)	Potency	[4]	inconclusive: 16.6 µM [rising, partial curve, poor fit]
CC1(C)CC(=O)c2c(C(F)(F)F)nn(-c3ccc(C(N)=O)c(NC4CCC(O)CC4)c3)c2C1 (centres undefined)	Potency	[5]	inconclusive: 0.166 µM [cytotoxic, full curve]

# From PubChem BioAssay (NCATS)
